Some of the results follow. The signal is at background level for most entries.
What was measured:
Assay in all cases: fluorescence intensity of antibody binding to polysaccharide-coupled beads; higher = stronger binding
[1] = biological target: pneumococcal polysaccharide Pn41A
[2] = biological target: pneumococcal polysaccharide Pn41F
[3] = biological target: pneumococcal polysaccharide Pn42
[4] = biological target: pneumococcal polysaccharide Pn43
[5] = biological target: pneumococcal polysaccharide Pn44
[6] = biological target: pneumococcal polysaccharide Pn45
[7] = biological target: pneumococcal polysaccharide Pn46
[8] = biological target: pneumococcal polysaccharide Pn47A
[9] = biological target: pneumococcal polysaccharide Pn47F
[10] = biological target: pneumococcal polysaccharide Pn48
[11] = biological target: pneumococcal polysaccharide Pn5
[12] = biological target: pneumococcal polysaccharide Pn6A
[13] = antibody concentration 2.8593 ng/mL
[14] = antibody concentration 15.2894 ng/mL
[15] = antibody concentration 81.7561 ng/mL
[16] = antibody concentration 437.17 ng/mL
[17] = antibody concentration 2337.65 ng/mL
[18] = antibody concentration 12500 ng/mL
[19] = antibody concentration 0.1 ng/mL
[20] = antibody concentration 0.534724 ng/mL

B1: 4-173.3 (protein)
chain 1: QLQLQESGPGLVKPSETLSLTCAVSGGSINNNYWSWIRQPPGKGLEWIGRIFGSGGSTDYNPSLKSRVTISTDTSKTQFSLNLNSVTAADTAVYFCARGSYQVDYWGQGVLVTVSS
chain 2: QAALTQPPSMSGSPGQSVTISCTGTSSDIGGWNRVSWYQQYPGKAPKLMIYEVSKRPSGVSDRFSGSKSGNTASLTISGLQAEDEADYYCSSYVHINNALFGGGTRLTVL
For B1, the fluorescence intensity [1, 13] was 23 MFI, the fluorescence intensity [1, 14] was 22.5 MFI and the fluorescence intensity [1, 15] was 21.5 MFI. For the same binder, the fluorescence intensity [1, 16] was 22.8 MFI, the fluorescence intensity [1, 17] was 24 MFI and the fluorescence intensity [1, 18] was 27.5 MFI. It also gave a fluorescence intensity [2, 19] of 12.8 MFI, a fluorescence intensity [2, 20] of 12 MFI and a fluorescence intensity [2, 13] of 13 MFI. It also gave a fluorescence intensity [2, 14] of 11.8 MFI, a fluorescence intensity [2, 15] of 11.5 MFI and a fluorescence intensity [2, 16] of 13 MFI. It also gave a fluorescence intensity [2, 17] of 15 MFI, a fluorescence intensity [2, 18] of 21 MFI and a fluorescence intensity [3, 19] of 11.5 MFI. It also gave a fluorescence intensity [3, 20] of 11 MFI, a fluorescence intensity [3, 13] of 12 MFI and a fluorescence intensity [3, 14] of 11.2 MFI. For the same binder, the fluorescence intensity [3, 15] was 11 MFI, the fluorescence intensity [3, 16] was 11.2 MFI and the fluorescence intensity [3, 17] was 12.5 MFI. It also gave a fluorescence intensity [3, 18] of 23.2 MFI, a fluorescence intensity [4, 19] of 14 MFI and a fluorescence intensity [4, 20] of 14.5 MFI. For the same binder, the fluorescence intensity [4, 13] was 15.5 MFI, the fluorescence intensity [4, 14] was 13.2 MFI and the fluorescence intensity [4, 15] was 15 MFI. For the same binder, the fluorescence intensity [4, 16] was 16.5 MFI, the fluorescence intensity [4, 17] was 24.5 MFI and the fluorescence intensity [4, 18] was 80.5 MFI. For the same binder, the fluorescence intensity [5, 19] was 23 MFI, the fluorescence intensity [5, 20] was 25.2 MFI and the fluorescence intensity [5, 13] was 24 MFI. For the same binder, the fluorescence intensity [5, 14] was 23 MFI, the fluorescence intensity [5, 15] was 25 MFI and the fluorescence intensity [5, 16] was 25.5 MFI. For the same binder, the fluorescence intensity [5, 17] was 26.2 MFI, the fluorescence intensity [5, 18] was 33 MFI and the fluorescence intensity [6, 19] was 9.5 MFI. The fluorescence intensity [6, 20] was 11 MFI, the fluorescence intensity [6, 13] was 11 MFI and the fluorescence intensity [6, 14] was 10.5 MFI. It also gave a fluorescence intensity [6, 15] of 10.5 MFI, a fluorescence intensity [6, 16] of 10.5 MFI and a fluorescence intensity [6, 17] of 12.5 MFI. It also gave a fluorescence intensity [6, 18] of 16.5 MFI, a fluorescence intensity [7, 19] of 22.5 MFI and a fluorescence intensity [7, 20] of 23.5 MFI. It also gave a fluorescence intensity [7, 13] of 23.5 MFI, a fluorescence intensity [7, 14] of 23 MFI and a fluorescence intensity [7, 15] of 24 MFI. For the same binder, the fluorescence intensity [7, 16] was 23 MFI, the fluorescence intensity [7, 17] was 25 MFI and the fluorescence intensity [7, 18] was 44.8 MFI. For the same binder, the fluorescence intensity [8, 19] was 15 MFI, the fluorescence intensity [8, 20] was 15.2 MFI and the fluorescence intensity [8, 13] was 14.8 MFI. The fluorescence intensity [8, 14] was 16.5 MFI, the fluorescence intensity [8, 15] was 15.5 MFI and the fluorescence intensity [8, 16] was 14.5 MFI. The fluorescence intensity [8, 17] was 15 MFI, the fluorescence intensity [8, 18] was 22 MFI and the fluorescence intensity [9, 19] was 11.5 MFI. The fluorescence intensity [9, 20] was 11.5 MFI, the fluorescence intensity [9, 13] was 11 MFI and the fluorescence intensity [9, 14] was 11 MFI. For the same binder, the fluorescence intensity [9, 15] was 12 MFI, the fluorescence intensity [9, 16] was 12 MFI and the fluorescence intensity [9, 17] was 14.5 MFI. It also gave a fluorescence intensity [9, 18] of 34.5 MFI, a fluorescence intensity [10, 19] of 20.2 MFI and a fluorescence intensity [10, 20] of 20.8 MFI. For the same binder, the fluorescence intensity [10, 13] was 20 MFI, the fluorescence intensity [10, 14] was 20 MFI and the fluorescence intensity [10, 15] was 21.5 MFI. It also gave a fluorescence intensity [10, 16] of 21.5 MFI, a fluorescence intensity [10, 17] of 25.2 MFI and a fluorescence intensity [10, 18] of 47.5 MFI. The fluorescence intensity [11, 19] was 8 MFI, the fluorescence intensity [11, 20] was 8.75 MFI and the fluorescence intensity [11, 13] was 8.75 MFI. It also gave a fluorescence intensity [11, 14] of 9 MFI, a fluorescence intensity [11, 15] of 9.5 MFI and a fluorescence intensity [11, 16] of 9.5 MFI. It also gave a fluorescence intensity [11, 17] of 11.8 MFI, a fluorescence intensity [11, 18] of 37.5 MFI and a fluorescence intensity [12, 19] of 23 MFI. For the same binder, the fluorescence intensity [12, 20] was 20.5 MFI, the fluorescence intensity [12, 13] was 20.5 MFI and the fluorescence intensity [12, 14] was 19.2 MFI.
